# In the supplement of paper PMC12889115:
# The other results are listed elsewhere or left out. These are raw signals, not scaled to a control.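 In the initial screen, polymyxin B was used at a concentration that permeabilizes Salmonella's outer membrane but not its inner membrane. Maximum growth was set by DMSO wells with or without polymyxin B. Since plates varied, data were ranked per plate, and compounds giving the lowest OD600 advanced as hits.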
# System: Salmonella enterica serovar Typhimurium SL1344
# Test: bacterial growth OD600 after 18 h with compound and polymyxin B; higher = more bacterial growth (less inhibition)
# Conditions: 50 µM, Mueller-Hinton broth
SMILES,bacterial growth OD600 (polymyxin B 0.75 µg/mL),bacterial growth OD600 (polymyxin B 1 µg/mL)
Cc1ccc(F)cc1CNC(=O)C1CC(=O)c2sc(NC(=O)c3c(F)cccc3Cl)nc2C1 (stereo unspecified),0.284,–
CC#CCN1C(=O)NC(CCc2ccccc2)(C2CCN(Cc3ccc(OCCO)cc3)CC2)C1=O (stereo unspecified),0.798,–
Cc1ccccc1-n1cc(CN2C[C@H]3OC(=O)N(Cc4ccccn4)[C@H]3C2)cn1,0.792,–
CCOC(=O)C1(Cc2cccc(OC)c2)CCN(CC2CC=CCC2)CC1 (stereo unspecified),–,0.738
CN(C)C(=O)N1CCC(C(=O)N2CCCC(Nc3ccccc3)C2)CC1 (stereo unspecified),0.862,–
CCOC(=O)N1CCN(Cc2ccc3c(c2)CN(C(=O)CCc2c(C)nn(C)c2C)CCO3)CC1,1,–
CC(C)(C)CN1CCC(N2CCCC(C(=O)NC3CC3)C2)CC1 (stereo unspecified),–,0.896
CSc1nc(C(=O)N(C)C2CCCN(C3Cc4ccccc4C3)C2)cs1 (stereo unspecified),–,0.947
CCCC(=O)NCC1Cc2cccc(-c3ncccc3C)c2O1 (stereo unspecified),0.817,–
CC(NCc1c(C(=O)N(C)Cc2ccccc2)nc2ccccn12)c1ccccc1 (stereo unspecified),–,0.687
COCCNC(=O)c1ccc(OC2CCN(Cc3ccco3)CC2)c(Cl)c1,–,0.921
O=C(NC1CC(=O)N(Cc2cccc(F)c2)C1)C1CCCC1 (stereo unspecified),–,0.859
Fc1ccc(F)c(CN2CCOc3ccc(CN4CCC(Oc5cccnc5)CC4)cc3C2)c1F,0.772,–
CC(C)NC1CC(C)(C)Cc2nc(C(C)(C)C)ncc21 (stereo unspecified),0.786,–
CC#CCN1C(=O)NC(CCCc2ccccc2)(C2CCN(C(=O)c3cc(C4CC4)n[nH]3)CC2)C1=O (stereo unspecified),0.201,–
Cn1ccnc1CNC(=O)c1ccccc1OC1CCN(C(=O)c2cccnc2)CC1,–,1.22

# As entered above.
# For bacterial growth OD600 (polymyxin B 1 µg/mL), `CCOC(=O)C1(Cc2cccc(OC)c2)CCN(CC2CC=CCC2)CC1` (stereo unspecified) has the entry 0.738
# For bacterial growth OD600 (polymyxin B 0.75 µg/mL), `Cc1ccccc1-n1cc(CN2C[C@H]3OC(=O)N(Cc4ccccn4)[C@H]3C2)cn1` has the entry 0.792

# (continued)

SMILES,bacterial growth OD600 (polymyxin B 0.75 µg/mL),bacterial growth OD600 (polymyxin B 1 µg/mL)
Fc1cccc(C2CCCCN2Cc2nc(-c3ccc4c(c3)OCO4)no2)c1 (stereo unspecified),–,0.732
CCN(CC1CCCN(CCc2cccc(OC)c2)C1)C(=O)c1ccc(C)s1 (stereo unspecified),–,0.852
CC(C)(C)CN1CCC(C2CCN(C(=O)c3ccnc(N)c3)CC2)C1 (stereo unspecified),0.968,–
CN1C(=O)c2ccc(C(=O)N3CCCC(Nc4ccc5c(c4)OCCO5)C3)cc2C1=O (stereo unspecified),0.785,–
CCN(CC)C(=O)C1CCCN(C(=O)c2oc3c(C)c(C)ccc3c2C)C1 (stereo unspecified),–,0.826
CN(Cc1n[nH]c2c1CCCC2)C(=O)CC1(c2cccc(F)c2)CC(=O)N(Cc2cccnc2)C1=O (stereo unspecified),0.759,–
CCn1cc(CNC(=O)c2cc(OC)ccc2OC2CCN(C(=O)C3CC3)CC2)cn1,–,0.763
CCN1CCC(NC2CCCc3nc(N(C)C)ncc32)CC1 (stereo unspecified),0.802,–
Cc1cccn2c(CN(C)Cc3cccnc3)c(C(=O)N(C)CCc3ccccc3)nc12,–,0.876
Cc1csc(C(C)NC(=O)c2cc(Cn3ccnc3C(C)C)[nH]n2)n1 (stereo unspecified),0.851,–
O=C(NC1CCOCC1)c1cc(Cn2cnc3ccccc32)on1,–,1.05
O=C(CCN1Cc2ccccc2OC(c2ccccc2F)C1)NCc1ccc2c(c1)OCO2 (stereo unspecified),0.527,–
CCN1CCN(C2(C(=O)NCCc3ccccc3)Cc3ccccc3C2)CC1,0.78,–
C=CCCC(=O)N1CCCC(CCc2cccc(F)c2)C1 (stereo unspecified),0.282,–
CN(CC1Cc2ccccc2O1)C(=O)CC1(c2ccc(-c3ccccc3)cc2)CC(=O)N(C)C1=O (stereo unspecified),0.716,–
